Source: the supplement of paper PMC8960247
Structures can show the parent of a compound that is named as a salt. This is a noisy data set.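 Immortalized human renal angiomyolipoma cells with an empty vector keep TSC2 lost. A luminescent ATP assay measured viability, normalized per plate to vehicle-treated wells, in low-serum medium where TSC2-rescued cells fail to grow.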

Tested on: 621-102 (TSC2-deficient)
Assay: relative viability vs DMSO (fraction); higher = less cytotoxic
Conditions: serum: 0.1% FBS, 72 h

SMILES	relative viability (0.0128 nM)	relative viability (0.064 nM)	relative viability (0.32 nM)	relative viability (1.6 nM)	relative viability (8 nM)	relative viability (40 nM)	relative viability (200 nM)	relative viability (1000 nM)	relative viability (5000 nM)
Oc1ccc(-c2nc(-c3ccc(F)cc3)c(-c3ccncc3)[nH]2)cc1	0.933	1.09	0.355	0.898	0.995	0.932	0.931	0.883	0.868
CO[C@H]1C[C@@H]2CC[C@@H](C)[C@@](O)(O2)C(=O)C(=O)N2CCCC[C@H]2C(=O)O[C@H]([C@H](C)C[C@@H]2CC[C@@H](OP(C)(C)=O)[C@H](OC)C2)CC(=O)[C@H](C)/C=C(\C)[C@@H](O)[C@@H](OC)C(=O)[C@H](C)C[C@H](C)/C=C/C=C/C=C/1C [Deforolimus(MK-8669)]	0.841	0.904	0.813	0.626	0.537	0.435	0.242	0.178	0.168
COc1cc2c(N3CCN(C(=O)Nc4ccc(OC(C)C)cc4)CC3)ncnc2cc1OCCCN1CCCCC1 [Tandutinib (MLN518)]	0.849	0.807	0.86	0.869	0.841	0.813	0.823	0.67	0.168
Cc1cc(C(C)Nc2ccccc2)c2nc(N3CCOCC3)cc(=O)n2c1 (centres undefined) [TGX-221]	0.878	0.907	0.891	0.82	0.748	0.841	0.721	0.699	0.613
COC[C@@H](c1ccc(C(F)(F)F)cc1)N1CCN(C2(C)CCN(C(=O)c3c(C)ncnc3C)CC2)C[C@@H]1C [Vicriviroc Malate]	0.856	0.802	0.771	0.822	0.756	0.798	0.77	0.739	0.642
COc1ccccc1N1CCN(CCN(C(=O)C2CCCCC2)c2ccccn2)CC1	0.783	0.748	0.76	0.791	0.566	0.618	0.692	0.76	0.143
COc1cc(Nc2ncc(F)c(Nc3ccc4c(n3)N(COP(=O)(O)O)C(=O)C(C)(C)O4)n2)cc(OC)c1OC [Fostamatinib]	0.835	0.787	0.926	0.9	0.882	0.742	0.927	0.744	0.703
COC(=O)[C@H](c1ccccc1Cl)N1CCc2sccc2C1 [Clopidogrel]	0.725	0.613	0.556	0.57	0.563	0.53	0.464	0.502	0.594
NC1=N[C@@]2(c3cc(NC(=O)c4ccc(F)cn4)ccc3F)COC[C@H]2CS1	0.837	0.844	0.988	0.829	0.874	0.778	1.01	0.807	0.765
COc1cc(OC)c(NC(=O)Nc2cc(C)on2)cc1Cl	0.881	0.885	0.868	0.96	0.952	0.874	0.83	0.782	0.685
CC[C@H](CO)Nc1nc(NCc2ccccc2)c2ncn(C(C)C)c2n1 [Roscovitine (Seliciclib,CYC202)]	0.939	0.922	0.961	0.691	0.879	0.962	0.806	0.839	0.637
Oc1nc(-c2ccc(C(F)(F)F)cc2)nc2c1CSCC2 [XAV-939]	0.42	0.416	0.551	0.731	0.755	0.796	0.782	0.719	0.693
CNC(=O)c1cc(Oc2ccc(NC(=O)Nc3ccc(Cl)c(C(F)(F)F)c3)cc2)ccn1 [Sorafenib Tosylate]	0.831	0.869	0.844	0.846	0.765	0.715	0.852	0.476	0.0101
COc1ccc2[nH]c([S@@+]([O-])Cc3ncc(C)c(OC)c3C)nc2c1 [Esomeprazole Sodium]	0.656	0.673	0.734	0.687	0.671	0.681	0.692	0.763	0.621
Nc1ncnc2c1c(-c1cnc3[nH]ccc3c1)nn2C1CCCC1 [PP121]	0.736	0.774	0.744	0.825	0.813	0.814	0.753	0.472	0.157
CCOC(=O)C1=C(COCCN)NC(C)=C(C(=O)OC)C1c1ccccc1Cl (centres undefined) [Amlodipine besylate (Norvasc)]	0.907	0.958	0.964	0.831	0.885	0.831	0.826	0.708	0.525
CCc1nc(N)nc(N)c1-c1ccc(Cl)cc1 [Pyrimethamine]	0.737	0.741	0.843	0.771	0.838	0.782	0.794	0.689	0.788
O=C(c1ccc(F)cc1)C1CCN(CCn2c(=O)[nH]c3ccccc3c2=O)CC1 [Ketanserin (Vulketan Gel)]	0.799	0.834	0.834	0.795	0.751	0.71	0.717	0.718	0.584
C=CC(=O)Nc1cccc(Sc2nc(Nc3ccc(N4CCN(C)CC4)cc3)ncc2Cl)c1 [WZ8040]	0.82	0.85	0.939	0.857	0.89	0.847	0.828	0.813	0.655
Cc1ccc(C(=O)N(CCCN)[C@@H](c2nc3cc(Cl)ccc3c(=O)n2Cc2ccccc2)C(C)C)cc1	0.807	0.778	0.799	0.78	0.241	0.158	0.145	0.145	0.0102
NC(=O)N1c2ccccc2C=Cc2ccccc21 [Carbamazepine]	0.714	0.675	0.766	0.791	0.639	0.638	0.564	0.655	0.739

Two entries from above, in markdown:

| SMILES | relative viability (0.0128 nM) | relative viability (0.064 nM) | relative viability (0.32 nM) | relative viability (1.6 nM) | relative viability (8 nM) | relative viability (40 nM) | relative viability (200 nM) | relative viability (1000 nM) | relative viability (5000 nM) |
| --- | --- | --- | --- | --- | --- | --- | --- | --- | --- |
| Cc1cc(C(C)Nc2ccccc2)c2nc(N3CCOCC3)cc(=O)n2c1 (centres undefined) [TGX-221] | 0.878 | 0.907 | 0.891 | 0.82 | 0.748 | 0.841 | 0.721 | 0.699 | 0.613 |
| COC[C@@H](c1ccc(C(F)(F)F)cc1)N1CCN(C2(C)CCN(C(=O)c3c(C)ncnc3C)CC2)C[C@@H]1C [Vicriviroc Malate] | 0.856 | 0.802 | 0.771 | 0.822 | 0.756 | 0.798 | 0.77 | 0.739 | 0.642 |
